ChEMBL document CHEMBL1144408, “Novel atypical antipsychotic agents: rational design, an efficient palladium-catalyzed route, and pharmacological studies” (J Med Chem, 2005)

Assays:
Format in all cases: functional
[1] = test system: Rattus norvegicus; assay: In vivo effective dose against catalepsy response was determined in rats
[2] = test system: Rattus norvegicus; assay: In vivo effective dose of compound against 5-MeO-DMT induced head twitches in rats
[3] = test system: Rattus norvegicus; assay: In vivo effective dose against 5-MeO-DMT-induced head twitches in rats was determined

Cc1cc2c(s1)Nc1ccccc1N=C2N1CCN(C)CC1 [OLANZAPINE]
ED50 [1]: 21.2 µmol/kg
ED50 [2]: 1.45 mg/kg
ED50 [3]: 4.65 µmol/kg
